The list shows only some results of the screen, not a fair sample: it gathers tests that were run many times, whatever their T/C, doses with no T/C, and many T/C values between a quarter and a half above the control. Other doses and runs of a compound stand elsewhere. T/C: endpoint of the treated group in % of that of the vehicle group. Schedule codes are those of the source, read here as Q, the interval in days (D) or hours (H), X, the number of doses. Some T/C values are followed by the survivors on the day toxicity was checked, most often the fifth; without a count, all were alive then. Some entries hold several experiments; their values stand side by side, smallest first. Some entries give survivors of the animals treated and no T/C: the source holds a T/C of zero for them, seemingly a mark for toxic or unscored doses. Counts of survivors are from the toxicity check (mostly the fifth day) where no day follows; animals may have died later. Some schedule codes hold Z or #, which are not explained here.
Test system: BDF1 mice, Adenocarcinoma 755 s.c., tumor weight T/C
Assay: NCI In Vivo Anticancer Drug Screen. Data for tumor model Adenocarcinoma 755 (subcutaneous) in B6D2F1 (BDF1) mice
Conditions: T/C endpoint: mean tumor weight, higher T/C = larger tumour; for T/C: evaluated on day 12
How it was run: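 Readout: T/C, i.e. treated-group measurement over vehicle-control measurement. Endpoint is survival or tumor size in tumor-bearing mice given compound.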

[1] = dose: 100.0 mg/kg/injection, schedule: Q01DX011 (ip), vehicle: methylcellulose (MC)
[2] = dose: 200.0 mg/kg/injection, schedule: Q01DX011 (ip), vehicle: methylcellulose (MC)

**Q.** Which T/C (dose: 42.5 mg/kg/injection, schedule: Q01DX011 (sc), vehicle: steroid suspending solution) does the source give for `CC1C[C@@H]2[C@H]([C@@H](O)C[C@@]3(C)[C@H]2CC[C@]3(O)C(=O)CF)[C@@]2(C)CCC(=O)C=C12` (some centres not stated) here?
**A.** Its T/C is 11, 15, 31, 49 % of control.

**Q.** And the T/C (dose: 85.0 mg/kg/injection, schedule: Q01DX011 (sc), vehicle: steroid suspending solution)?
**A.** The T/C was 7 [9 of 12 alive], 12, 21, 30 % of control.

**Q.** `CCOC(=O)C(N)Cc1ccc(N(CCCl)CCCl)cc1` (configuration not stated) was tested. Which survivor count (dose: 9.0 mg/kg/injection, schedule: Q01DX011 (ip), vehicle: saline) did it give?
**A.** Its survivor count is 3 of 10.

**Q.** Which survivor count (dose: 375.0 mg/kg/injection, schedule: Q01DX011 (ip), vehicle: carboxymethylcellulose (CMC)) does the source give for `CCOC(=O)CCCc1ccc(N=NN(C)C(C)CC)cc1` (configuration not stated) here?
**A.** Its survivor count is 1 of 10.

**Q.** Which survivor count (dose: 62.5 mg/kg/injection, schedule: Q01DX011 (ip), vehicle: carboxymethylcellulose (CMC)) does the source give for `CCCCNc1ncnc2c1cnn2C` here?
**A.** Its survivor count is 5 of 10.

**Q.** What about the survivor count (dose: 125.0 mg/kg/injection, schedule: Q01DX011 (ip), vehicle: carboxymethylcellulose (CMC)) of the same compound?
**A.** The survivor count was 0 of 10.

**Q.** And the survivor count (dose: 250.0 mg/kg/injection, schedule: Q01DX011 (ip), vehicle: carboxymethylcellulose (CMC))?
**A.** Its survivor count is 0 of 10.

**Q.** `CCCCCCCCCCCCCCCC[n+]1ccccc1` was tested. Which survivor count (dose: 1.0 mg/kg/injection, schedule: Q01DX011 (ip), vehicle: water) did it give?
**A.** The survivor count was 4 of 10.

**Q.** What does the source list for `CCc1nc(N)nc(N)c1-c1ccc(Cl)c(Cl)c1`?
**A.** survivor count (dose: 2.0 mg/kg/injection, schedule: Q01DX011 (ip), vehicle: methylcellulose (MC)): 6 of 10; survivor count (dose: 4.0 mg/kg/injection, schedule: Q01DX011 (ip), vehicle: methylcellulose (MC)): 5 of 10; survivor count (dose: 8.0 mg/kg/injection, schedule: Q01DX011 (ip), vehicle: methylcellulose (MC)): 1 of 10

**Q.** How did the survivor count (dose: 0.31 mg/kg/injection, schedule: Q01DX011 (ip), vehicle: carboxymethylcellulose (CMC)) turn out when `COC(C(=O)C(O)C(C)O)C1Cc2cc3cc(OC4CC(OC(C)=O)C(OC5CC(O)C(OC)C(C)O5)C(C)O4)cc(O)c3c(O)c2C(=O)C1OC1CC(OC2CC(OC3CC(C)(O)C(OC(=O)C(C)C)C(C)O3)C(O)C(C)O2)C(O)C(C)O1` (configuration not stated) was run?
**A.** The survivor count was 2 of 10.

**Q.** And the survivor count (dose: 0.62 mg/kg/injection, schedule: Q01DX011 (ip), vehicle: carboxymethylcellulose (CMC))?
**A.** The survivor count was 2 of 10.

**Q.** With `Cn1c(=O)c2[nH]c(N/N=C/c3ccc(F)cc3)nc2n(C)c1=O` as the compound, how does the T/C (dose: 240.0 mg/kg/injection, schedule: Q01DX011 (ip), vehicle: carboxymethylcellulose (CMC)) read?
**A.** The T/C was 141 % of control.

**Q.** With `CCC(=O)O[C@H]1CC[C@H]2[C@@H]3CC[C@H]4CC(=O)[C@H](C)C[C@]4(C)[C@H]3CC[C@]12C` as the compound, how does the T/C (dose: 88.25 mg/kg/injection, schedule: Q01DX011 (sc), vehicle: steroid suspending solution) read?
**A.** Its T/C is 131 % of control.

**Q.** What about the T/C (dose: 125.0 mg/kg/injection, schedule: Q01DX011 (sc), vehicle: steroid suspending solution) of the same compound?
**A.** Its T/C is 131 % of control.

**Q.** What about the survivor count (dose: 353.0 mg/kg/injection, schedule: Q01DX011 (sc), vehicle: steroid suspending solution) of the same compound?
**A.** Its survivor count is 4 of 10.

**Q.** What about the T/C (dose: 500.0 mg/kg/injection, schedule: Q01DX011 (sc), vehicle: steroid suspending solution) of the same compound?
**A.** Its T/C is 138 % of control.

**Q.** And the survivor count (dose: 1000.0 mg/kg/injection, schedule: Q01DX011 (sc), vehicle: steroid suspending solution)?
**A.** The survivor count was 3 of 10.

**Q.** `COc1cc(-c2ccc(N=Nc3c(O)ccc4ccccc34)c(OC)c2)ccc1N=Nc1ccc2c(S(=O)(=O)O)cc(S(=O)(=O)O)c(N)c2c1O` was tested. Which survivor count (dose: 450.0 mg/kg/injection, schedule: Q01DX011 (ip), vehicle: carboxymethylcellulose (CMC)) did it give?
**A.** Its survivor count is 2 of 10.

**Q.** With `c1ccc2c(c1)ccc1cc3c(ccc4ccccc43)cc12` as the compound, how does the T/C [1] read?
**A.** Its T/C is 15, 29, 29 [8 of 10 alive], 83 % of control.

**Q.** What about the survivor count [1] of the same compound?
**A.** The survivor count was 2 of 10.

**Q.** And the T/C [2]?
**A.** The T/C was 21 [9 of 10 alive], 41, 43 % of control [9 of 10 alive].

**Q.** What about the survivor count [2] of the same compound?
**A.** The survivor count was 4 of 10 and 5 of 10.

**Q.** And the survivor count (dose: 400.0 mg/kg/injection, schedule: Q01DX011 (ip), vehicle: methylcellulose (MC))?
**A.** Its survivor count is 2 of 10.

**Q.** And the survivor count (dose: 600.0 mg/kg/injection, schedule: Q01DX011 (ip), vehicle: methylcellulose (MC))?
**A.** Its survivor count is 5 of 10.

**Q.** What about the survivor count (dose: 800.0 mg/kg/injection, schedule: Q01DX011 (ip), vehicle: other) of the same compound?
**A.** The survivor count was 6 of 10.

**Q.** How did the T/C (dose: 2.0 mg/kg/injection, schedule: Q01DX011 (ip), vehicle: other) turn out when `CN(C)S(=O)(=O)c1ncnc2nc[nH]c12` was run?
**A.** Its T/C is 138 % of control [9 of 10 alive].

**Q.** What about the T/C (dose: 8.0 mg/kg/injection, schedule: Q01DX011 (ip), vehicle: other) of the same compound?
**A.** The T/C was 126 % of control [9 of 10 alive].

**Q.** For `C[C@@H]1C[C@@H]([C@H](O)CC2CC(=O)NC(=O)C2)C(=O)[C@@H](C)C1`, which survivor count (dose: 4.31 mg/kg/injection, schedule: Q01DX011 (ip), vehicle: carboxymethylcellulose (CMC)) is on record?
**A.** The survivor count was 6 of 10.

**Q.** And the T/C (dose: 10.0 mg/kg/injection, schedule: Q01DX006 (iv), vehicle: alkali diluted with saline)?
**A.** Its T/C is 135 % of control [9 of 10 alive].

**Q.** And the survivor count (dose: 63.0 mg/kg/injection, schedule: Q01DX011 (ip), vehicle: carboxymethylcellulose (CMC))?
**A.** Its survivor count is 3 of 10.

**Q.** And the survivor count (dose: 76.0 mg/kg/injection, schedule: Q01DX011 (ip), vehicle: carboxymethylcellulose (CMC))?
**A.** Its survivor count is 4 of 10.

**Q.** What about the T/C (dose: 80.0 mg/kg/injection, schedule: Q01DX011 (ip), vehicle: alkali diluted with saline) of the same compound?
**A.** Its T/C is 140 % of control [9 of 10 alive].

**Q.** And the survivor count (dose: 80.0 mg/kg/injection, schedule: Q01DX011 (oral), vehicle: alkali diluted with saline)?
**A.** Its survivor count is 0 of 10 and 3 of 10.

**Q.** And the survivor count (dose: 80.0 mg/kg/injection, schedule: Q01DX011 (sc), vehicle: steroid suspending solution)?
**A.** The survivor count was 5 of 10.

**Q.** And the survivor count (dose: 80.0 mg/kg/injection, schedule: Q#A X022 (ip), vehicle: alkali diluted with saline)?
**A.** The survivor count was 0 of 10.

**Q.** And the survivor count (dose: 160.0 mg/kg/injection, schedule: Q01DX011 (im), vehicle: alkali diluted with saline)?
**A.** Its survivor count is 0 of 10.

**Q.** And the survivor count (dose: 160.0 mg/kg/injection, schedule: Q01DX011 (ip), vehicle: alkali diluted with saline)?
**A.** The survivor count was 0 of 10.

**Q.** What about the survivor count (dose: 160.0 mg/kg/injection, schedule: Q01DX011 (oral), vehicle: alkali diluted with saline) of the same compound?
**A.** Its survivor count is 0 of 10.

**Q.** And the survivor count (dose: 160.0 mg/kg/injection, schedule: Q#A X022 (ip), vehicle: alkali diluted with saline)?
**A.** Its survivor count is 0 of 10.

**Q.** What about the survivor count (dose: 200.0 mg/kg/injection, schedule: Q01DX001 (ip), vehicle: alkali diluted with saline) of the same compound?
**A.** Its survivor count is 5 of 10.

**Q.** And the survivor count (dose: 240.0 mg/kg/injection, schedule: Q03DX004 (ip), vehicle: alkali diluted with saline)?
**A.** Its survivor count is 0 of 10.

**Q.** And the survivor count (dose: 320.0 mg/kg/injection, schedule: Q01DX006 (iv), vehicle: alkali diluted with saline)?
**A.** The survivor count was 0 of 10.

**Q.** What about the survivor count (dose: 320.0 mg/kg/injection, schedule: Q01DX011 (im), vehicle: alkali diluted with saline) of the same compound?
**A.** The survivor count was 0 of 10.

**Q.** And the survivor count (dose: 320.0 mg/kg/injection, schedule: Q01DX011 (ip), vehicle: alkali diluted with saline)?
**A.** Its survivor count is 0 of 10.

**Q.** What about the survivor count (dose: 320.0 mg/kg/injection, schedule: Q01DX011 (oral), vehicle: alkali diluted with saline) of the same compound?
**A.** Its survivor count is 0 of 10.

**Q.** What about the survivor count (dose: 400.0 mg/kg/injection, schedule: Q01DX001 (ip), vehicle: alkali diluted with saline) of the same compound?
**A.** The survivor count was 0 of 10.

**Q.** And the survivor count (dose: 800.0 mg/kg/injection, schedule: Q01DX001 (ip), vehicle: alkali diluted with saline)?
**A.** The survivor count was 0 of 10.

**Q.** And the survivor count (dose: 1600.0 mg/kg/injection, schedule: Q01DX001 (ip), vehicle: alkali diluted with saline)?
**A.** Its survivor count is 1 of 10.

**Q.** With `Nc1cccc2c(=O)[nH][nH]c(=O)c12` as the compound, how does the survivor count (dose: 375.0 mg/kg/injection, schedule: Q01DX011 (ip), vehicle: water) read?
**A.** The survivor count was 6 of 10.

**Q.** What does the source list for `COc1ccccc1NC(=O)CSC(N)=O`?
**A.** survivor count (dose: 500.0 mg/kg/injection, schedule: Q01DX011 (ip), vehicle: methylcellulose (MC)): 3 of 10; survivor count (dose: 800.0 mg/kg/injection, schedule: Q01DX011 (ip), vehicle: carboxymethylcellulose (CMC)): 0 of 10

**Q.** How did the survivor count (dose: 225.0 mg/kg/injection, schedule: Q01DX011 (ip), vehicle: methylcellulose (MC)) turn out when `Cn1cnc2nc[nH]c2c1=S` was run?
**A.** The survivor count was 4 of 10.

**Q.** Which results are given for `CN(Cc1cnc2nc(NCNC(=O)C3=C(O)[C@@]4(O)C(=O)C5=C(O)c6c(O)cccc6[C@@](C)(O)[C@H]5C[C@H]4[C@H](N(C)C)C3=O)nc(N)c2n1)c1ccc(C(=O)NC(CCC(=O)O)C(=O)O)cc1` (some centres not stated)?
**A.** survivor count (dose: 6.0 mg/kg/injection, schedule: Q01DX011 (ip), vehicle: saline): 0 of 10; survivor count (dose: 24.0 mg/kg/injection, schedule: Q01DX011 (ip), vehicle: saline): 3 of 10; survivor count (dose: 48.0 mg/kg/injection, schedule: Q01DX011 (ip), vehicle: saline): 0 of 10

From PubChem BioAssay AID180 (DTP/NCI, 2004)
